Common to all, as to test: SEC; Superdex 200 gel filtration in buffer A (20 mM Hepes pH 7.8, 500 mM NaCl, 1 mM TCEP, 10% glycerol); monomer or dimer read from the elution profile; both purified
On the technique in general: SEC sorts molecules by how far they enter the pores of the column.

By UniProt entry, the sequences of proteins in these tests, tags left out. Where a name states a change or a piece, a line headed by the entry shows the natural chain unless it says otherwise.
UniProt Q03868: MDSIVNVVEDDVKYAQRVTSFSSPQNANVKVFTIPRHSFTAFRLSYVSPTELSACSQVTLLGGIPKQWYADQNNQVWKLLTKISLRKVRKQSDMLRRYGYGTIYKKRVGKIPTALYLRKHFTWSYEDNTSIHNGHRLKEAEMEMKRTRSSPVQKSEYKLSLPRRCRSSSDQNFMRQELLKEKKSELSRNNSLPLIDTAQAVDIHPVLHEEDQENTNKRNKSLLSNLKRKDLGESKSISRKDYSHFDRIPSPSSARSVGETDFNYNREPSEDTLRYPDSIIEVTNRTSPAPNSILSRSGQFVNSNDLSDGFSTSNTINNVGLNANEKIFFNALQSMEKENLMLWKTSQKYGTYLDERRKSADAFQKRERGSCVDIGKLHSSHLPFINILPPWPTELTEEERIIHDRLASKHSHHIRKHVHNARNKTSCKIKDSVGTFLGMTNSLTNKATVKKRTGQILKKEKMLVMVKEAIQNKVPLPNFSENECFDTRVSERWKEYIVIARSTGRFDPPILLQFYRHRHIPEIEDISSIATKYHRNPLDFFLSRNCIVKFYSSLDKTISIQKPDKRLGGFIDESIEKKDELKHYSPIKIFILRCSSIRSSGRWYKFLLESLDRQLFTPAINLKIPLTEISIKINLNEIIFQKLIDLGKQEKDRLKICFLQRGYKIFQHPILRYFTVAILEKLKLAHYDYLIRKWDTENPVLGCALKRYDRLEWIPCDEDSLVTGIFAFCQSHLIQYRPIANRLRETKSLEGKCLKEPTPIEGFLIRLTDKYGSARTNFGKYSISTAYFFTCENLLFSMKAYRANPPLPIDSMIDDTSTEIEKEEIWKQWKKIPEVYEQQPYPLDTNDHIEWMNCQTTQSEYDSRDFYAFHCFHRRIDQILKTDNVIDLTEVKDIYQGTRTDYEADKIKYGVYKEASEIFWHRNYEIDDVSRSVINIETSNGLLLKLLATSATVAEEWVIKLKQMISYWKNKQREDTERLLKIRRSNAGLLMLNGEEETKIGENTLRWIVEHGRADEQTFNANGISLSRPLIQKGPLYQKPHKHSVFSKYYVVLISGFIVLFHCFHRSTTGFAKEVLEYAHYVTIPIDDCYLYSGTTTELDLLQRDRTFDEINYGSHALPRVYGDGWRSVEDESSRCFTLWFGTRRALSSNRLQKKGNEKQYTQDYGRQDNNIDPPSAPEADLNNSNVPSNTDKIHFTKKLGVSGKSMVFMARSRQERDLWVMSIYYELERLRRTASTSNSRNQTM
UniProt Q07878: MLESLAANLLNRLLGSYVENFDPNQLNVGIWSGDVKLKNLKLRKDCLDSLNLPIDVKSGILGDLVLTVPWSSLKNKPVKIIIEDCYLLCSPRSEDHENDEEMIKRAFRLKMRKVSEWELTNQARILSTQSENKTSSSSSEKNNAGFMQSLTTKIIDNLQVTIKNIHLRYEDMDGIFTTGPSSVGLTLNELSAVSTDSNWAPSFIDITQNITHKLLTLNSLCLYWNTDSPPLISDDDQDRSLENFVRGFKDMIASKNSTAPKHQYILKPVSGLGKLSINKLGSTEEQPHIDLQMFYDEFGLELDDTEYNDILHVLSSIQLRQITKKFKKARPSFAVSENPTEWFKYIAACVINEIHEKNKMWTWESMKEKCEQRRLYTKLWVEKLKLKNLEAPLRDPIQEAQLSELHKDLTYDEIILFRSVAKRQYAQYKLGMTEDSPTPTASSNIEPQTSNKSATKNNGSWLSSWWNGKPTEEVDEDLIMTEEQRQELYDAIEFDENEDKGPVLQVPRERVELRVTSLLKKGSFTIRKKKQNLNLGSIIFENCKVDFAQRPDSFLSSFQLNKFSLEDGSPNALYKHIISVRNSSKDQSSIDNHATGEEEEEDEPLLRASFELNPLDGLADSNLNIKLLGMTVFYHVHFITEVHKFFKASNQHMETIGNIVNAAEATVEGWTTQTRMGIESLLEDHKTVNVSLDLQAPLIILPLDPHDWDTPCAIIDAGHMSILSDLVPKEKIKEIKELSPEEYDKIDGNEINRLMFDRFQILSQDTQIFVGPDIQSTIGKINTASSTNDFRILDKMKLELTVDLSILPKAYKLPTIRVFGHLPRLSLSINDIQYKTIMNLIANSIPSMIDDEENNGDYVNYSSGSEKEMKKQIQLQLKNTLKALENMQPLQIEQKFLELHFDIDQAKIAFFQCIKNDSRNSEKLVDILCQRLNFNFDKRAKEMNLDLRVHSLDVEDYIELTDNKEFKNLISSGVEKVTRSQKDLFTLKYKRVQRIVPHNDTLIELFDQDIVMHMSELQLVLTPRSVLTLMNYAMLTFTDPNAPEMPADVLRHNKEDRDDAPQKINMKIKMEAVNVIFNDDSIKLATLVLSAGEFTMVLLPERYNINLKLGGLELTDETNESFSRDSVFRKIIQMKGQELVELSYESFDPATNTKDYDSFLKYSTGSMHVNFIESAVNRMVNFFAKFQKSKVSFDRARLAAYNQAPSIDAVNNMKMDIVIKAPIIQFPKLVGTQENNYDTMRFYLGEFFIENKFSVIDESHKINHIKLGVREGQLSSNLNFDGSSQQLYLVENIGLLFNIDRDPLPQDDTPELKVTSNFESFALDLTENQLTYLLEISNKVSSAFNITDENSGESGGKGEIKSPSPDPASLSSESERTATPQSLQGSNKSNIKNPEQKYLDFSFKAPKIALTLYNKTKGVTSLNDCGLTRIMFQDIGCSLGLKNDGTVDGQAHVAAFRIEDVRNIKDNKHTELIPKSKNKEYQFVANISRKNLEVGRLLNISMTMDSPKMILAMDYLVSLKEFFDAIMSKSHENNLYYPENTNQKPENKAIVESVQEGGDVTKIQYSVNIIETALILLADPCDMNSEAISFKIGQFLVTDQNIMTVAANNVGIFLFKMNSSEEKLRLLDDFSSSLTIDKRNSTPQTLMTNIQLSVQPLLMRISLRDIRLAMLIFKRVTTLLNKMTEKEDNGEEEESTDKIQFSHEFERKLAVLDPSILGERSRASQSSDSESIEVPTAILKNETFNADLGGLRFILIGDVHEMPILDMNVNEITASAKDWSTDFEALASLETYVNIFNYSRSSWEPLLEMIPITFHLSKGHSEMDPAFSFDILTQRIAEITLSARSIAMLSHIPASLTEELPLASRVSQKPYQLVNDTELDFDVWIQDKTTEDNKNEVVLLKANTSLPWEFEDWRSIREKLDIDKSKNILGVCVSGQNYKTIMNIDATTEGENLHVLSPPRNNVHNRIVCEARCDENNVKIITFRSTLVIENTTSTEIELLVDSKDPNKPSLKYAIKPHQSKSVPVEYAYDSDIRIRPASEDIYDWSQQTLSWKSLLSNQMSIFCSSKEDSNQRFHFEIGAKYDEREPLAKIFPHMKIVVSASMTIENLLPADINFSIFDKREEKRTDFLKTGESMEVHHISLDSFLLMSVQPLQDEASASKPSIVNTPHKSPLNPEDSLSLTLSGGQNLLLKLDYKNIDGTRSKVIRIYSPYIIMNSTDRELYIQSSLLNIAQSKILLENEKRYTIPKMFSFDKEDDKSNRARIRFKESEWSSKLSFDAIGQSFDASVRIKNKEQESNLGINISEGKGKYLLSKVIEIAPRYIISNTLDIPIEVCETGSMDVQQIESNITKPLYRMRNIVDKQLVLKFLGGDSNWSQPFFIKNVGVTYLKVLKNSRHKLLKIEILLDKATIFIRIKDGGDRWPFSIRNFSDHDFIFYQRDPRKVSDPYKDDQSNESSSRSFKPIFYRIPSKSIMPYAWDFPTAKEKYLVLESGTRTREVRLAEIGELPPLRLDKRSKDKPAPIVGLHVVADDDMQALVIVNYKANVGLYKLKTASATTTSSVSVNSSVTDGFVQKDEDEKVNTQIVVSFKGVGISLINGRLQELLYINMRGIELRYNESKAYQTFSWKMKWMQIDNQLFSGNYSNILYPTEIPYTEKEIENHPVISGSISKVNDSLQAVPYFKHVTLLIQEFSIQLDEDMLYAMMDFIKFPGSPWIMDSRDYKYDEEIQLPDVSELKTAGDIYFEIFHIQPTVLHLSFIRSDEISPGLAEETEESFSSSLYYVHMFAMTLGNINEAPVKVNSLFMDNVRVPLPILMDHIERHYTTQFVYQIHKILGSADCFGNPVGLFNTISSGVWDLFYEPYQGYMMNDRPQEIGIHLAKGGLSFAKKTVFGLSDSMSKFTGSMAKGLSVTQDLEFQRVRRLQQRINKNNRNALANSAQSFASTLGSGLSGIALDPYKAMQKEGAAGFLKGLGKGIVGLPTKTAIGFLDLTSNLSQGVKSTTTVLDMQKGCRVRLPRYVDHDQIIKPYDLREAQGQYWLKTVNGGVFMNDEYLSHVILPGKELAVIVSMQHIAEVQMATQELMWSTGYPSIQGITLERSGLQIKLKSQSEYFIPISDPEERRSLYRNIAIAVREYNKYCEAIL
UniProt P38815: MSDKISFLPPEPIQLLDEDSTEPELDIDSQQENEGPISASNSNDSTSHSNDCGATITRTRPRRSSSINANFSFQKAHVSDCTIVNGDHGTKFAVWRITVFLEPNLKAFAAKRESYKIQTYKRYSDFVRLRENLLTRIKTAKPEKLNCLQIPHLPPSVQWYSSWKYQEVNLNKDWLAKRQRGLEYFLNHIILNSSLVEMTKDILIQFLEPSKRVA
UniProt Q12106: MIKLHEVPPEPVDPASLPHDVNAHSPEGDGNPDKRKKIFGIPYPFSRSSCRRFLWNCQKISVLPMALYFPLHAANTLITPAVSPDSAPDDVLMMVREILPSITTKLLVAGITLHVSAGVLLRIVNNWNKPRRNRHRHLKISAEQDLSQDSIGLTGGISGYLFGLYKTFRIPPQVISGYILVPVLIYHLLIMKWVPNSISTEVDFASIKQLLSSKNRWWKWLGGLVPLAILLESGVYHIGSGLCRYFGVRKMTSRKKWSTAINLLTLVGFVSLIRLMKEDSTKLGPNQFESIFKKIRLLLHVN

Test [1] addresses PXP(Spo71sc)-VABsc mutant (R2396E, I2468A, I2473A, M2474A) (S. cerevisiae) (UniProt Q03868+Q07878).
Test [2] deals with PXP(Ypt35sc)-VABsc mutant (R2396E, I2468A, I2473A, M2474A) (S. cerevisiae) (UniProt P38815+Q07878).
Test [3] deals with PXP(Mcp1sc)-VABsc mutant (R2396E, I2468A, I2473A, M2474A) (S. cerevisiae) (UniProt Q12106+Q07878).

These are yes or no findings as the source states them, for the method shown.

B1: PXP(Spo71sc)-VABsc mutant (R2396E, I2468A, I2473A, M2474A) (protein, UniProt Q03868 380-400; Q07878 1869-2545)
chain: SHLPFINILPPWPTELTEEERKPYQLVNDTELDFDVWIQDKTTEDNKNEVVLLKANTSLPWEFEDWRSIREKLDIDKSKNILGVCVSGQNYKTIMNIDATTEGENLHVLSPPRNNVHNRIVCEARCDENNVKIITFRSTLVIENTTSTEIELLVDSKDPNKPSLKYAIKPHQSKSVPVEYAYDSDIRIRPASEDIYDWSQQTLSWKSLLSNQMSIFCSSKEDSNQRFHFEIGAKYDEREPLAKIFPHMKIVVSASMTIENLLPADINFSIFDKREEKRTDFLKTGESMEVHHISLDSFLLMSVQPLQDEASASKPSIVNTPHKSPLNPEDSLSLTLSGGQNLLLKLDYKNIDGTRSKVIRIYSPYIIMNSTDRELYIQSSLLNIAQSKILLENEKRYTIPKMFSFDKEDDKSNRARIRFKESEWSSKLSFDAIGQSFDASVRIKNKEQESNLGINISEGKGKYLLSKVIEIAPRYIISNTLDIPIEVCETGSMDVQQIESNITKPLYRMRNIVDKQLVLKFLGGDSNWSQPFFIKNVGVTYLKVLKNSEHKLLKIEILLDKATIFIRIKDGGDRWPFSIRNFSDHDFIFYQRDPRKVSDPYKDDQSNESSSRSFKPIFYRAPSKSAAPYAWDFPTAKEKYLVLESGTRTREVRLAEIGELPPLRLDKRSKDKPAPIVGLHVVADDDMQALVIVNYKAN
As to B1, in test [1], the binding entry was “no binding”.

B2: PXP(Ypt35sc)-VABsc mutant (R2396E, I2468A, I2473A, M2474A) (protein, UniProt P38815 2-22; Q07878 1869-2545)
chain: SDKISFLPPEPIQLLDEDSTEKPYQLVNDTELDFDVWIQDKTTEDNKNEVVLLKANTSLPWEFEDWRSIREKLDIDKSKNILGVCVSGQNYKTIMNIDATTEGENLHVLSPPRNNVHNRIVCEARCDENNVKIITFRSTLVIENTTSTEIELLVDSKDPNKPSLKYAIKPHQSKSVPVEYAYDSDIRIRPASEDIYDWSQQTLSWKSLLSNQMSIFCSSKEDSNQRFHFEIGAKYDEREPLAKIFPHMKIVVSASMTIENLLPADINFSIFDKREEKRTDFLKTGESMEVHHISLDSFLLMSVQPLQDEASASKPSIVNTPHKSPLNPEDSLSLTLSGGQNLLLKLDYKNIDGTRSKVIRIYSPYIIMNSTDRELYIQSSLLNIAQSKILLENEKRYTIPKMFSFDKEDDKSNRARIRFKESEWSSKLSFDAIGQSFDASVRIKNKEQESNLGINISEGKGKYLLSKVIEIAPRYIISNTLDIPIEVCETGSMDVQQIESNITKPLYRMRNIVDKQLVLKFLGGDSNWSQPFFIKNVGVTYLKVLKNSEHKLLKIEILLDKATIFIRIKDGGDRWPFSIRNFSDHDFIFYQRDPRKVSDPYKDDQSNESSSRSFKPIFYRAPSKSAAPYAWDFPTAKEKYLVLESGTRTREVRLAEIGELPPLRLDKRSKDKPAPIVGLHVVADDDMQALVIVNYKAN
Consider B2, for which, in test [2], the binding entry was “no binding”.

B3: PXP(Mcp1sc)-VABsc mutant (R2396E, I2468A, I2473A, M2474A) (protein, UniProt Q12106 2-20; Q07878 1869-2545)
chain: IKLHEVPPEPVDPASLPHDKPYQLVNDTELDFDVWIQDKTTEDNKNEVVLLKANTSLPWEFEDWRSIREKLDIDKSKNILGVCVSGQNYKTIMNIDATTEGENLHVLSPPRNNVHNRIVCEARCDENNVKIITFRSTLVIENTTSTEIELLVDSKDPNKPSLKYAIKPHQSKSVPVEYAYDSDIRIRPASEDIYDWSQQTLSWKSLLSNQMSIFCSSKEDSNQRFHFEIGAKYDEREPLAKIFPHMKIVVSASMTIENLLPADINFSIFDKREEKRTDFLKTGESMEVHHISLDSFLLMSVQPLQDEASASKPSIVNTPHKSPLNPEDSLSLTLSGGQNLLLKLDYKNIDGTRSKVIRIYSPYIIMNSTDRELYIQSSLLNIAQSKILLENEKRYTIPKMFSFDKEDDKSNRARIRFKESEWSSKLSFDAIGQSFDASVRIKNKEQESNLGINISEGKGKYLLSKVIEIAPRYIISNTLDIPIEVCETGSMDVQQIESNITKPLYRMRNIVDKQLVLKFLGGDSNWSQPFFIKNVGVTYLKVLKNSEHKLLKIEILLDKATIFIRIKDGGDRWPFSIRNFSDHDFIFYQRDPRKVSDPYKDDQSNESSSRSFKPIFYRAPSKSAAPYAWDFPTAKEKYLVLESGTRTREVRLAEIGELPPLRLDKRSKDKPAPIVGLHVVADDDMQALVIVNYKAN
B3: in test [3], the binding entry is on record as “no binding”.

Values taken from paper PMC8978259, “Structural and biochemical insights into lipid transport by VPS13 proteins” (The Journal of Cell Biology, 2022).
